From PubChem BioAssay AID504444 (National Center for Advancing Translational Sciences (NCATS), 2011)
Hit rate of the full screen: of about 360,000 compounds, about 7,500 (2.1%) were called active. Inconclusive results, whose numbers are uncertain, are shown with a selection of clear calls. Calls come from the whole dose curve; as a rule, active = well fitted inhibition curve with a large enough effect; inconclusive = small, poorly fitted or top-dose-only effect, or effect the other way; inactive = flat fitted curve, though single readings scatter. A potency beside an inconclusive call is a rough fit, not a confirmed value.

Assay: Nrf2 qHTS screen for inhibitors; note: nearly all actives have a fitted effect of over 60% in size
Details: A549 ARE-Fluc reporter, luciferase luminescence, 18-24 h; activity change, negative = inhibition: at 46 µM (top of the series)
How it was run: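 Two sequential reads on A549 ARE_Fluc cells exposed to compound for 18-24 h: a CellTiter-Fluor fluorescence read for viability, then a luciferase luminescence read for Nrf2/ARE activity.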
% is set by controls: 0 for no effect and ±100 for the full control effect; potency is the fitted concentration of half-maximal effect.

| Structure (SMILES) | Potency | activity change, negative = inhibition |
| --- | --- | --- |
| COc1ccc(-c2csc(-c3cccs3)n2)c(OC)c1 | inconclusive: 9.2 µM [activator, partial curve] | – |
| O=c1cc(CSc2nnc(-c3ccco3)o2)c2ccccc2[nH]1 | inconclusive: 2.59 µM [falling, partial curve, poor fit] | – |
| COc1ccc(C(=O)NCc2ccc3c(c2)cc(C)n3C)cc1OC | inconclusive: 25.9 µM [falling, partial curve, poor fit] | – |
| CCn1ncc(C(=O)Nc2ccc(F)cc2)c1C | inconclusive: 29.1 µM [activator, single point] | – |
| O=C(CSc1nnc(Cc2ccccc2)o1)NC1CCCCC1 | inconclusive: 16.4 µM [falling, partial curve, poor fit] | – |
| O=S(=O)(O)c1cc(O)c(N=Nc2ccc(O)cc2O)c2ccccc12 | inconclusive: 18.4 µM [falling, single point] | – |
| O=C(O)c1cccc(NC(=S)N/N=C/c2c[nH]c3ccccc23)c1 | inconclusive: 23.1 µM [activator, partial curve] | – |
| COc1ccc(N2C(=O)c3ccccc3NC2(C)C)cc1 | inconclusive: 20.6 µM [activator, partial curve, poor fit] | – |
| COc1ccc2cc(S(=O)(=O)NCc3cccnc3)ccc2c1 | inconclusive: 18.4 µM [falling, single point] | – |
| O=c1cc(C(Cl)(Cl)Cl)oc2c1ccc1ccccc12 | active: 20.6 µM | – |
| Cc1cccn2c1nc(=S)n2C(=O)c1ccco1 | inconclusive: 6.51 µM [activator, partial curve] | – |
| CCOC(=O)c1c(NC(=O)/C=C/c2ccc(OC)cc2)sc2c1CCC(C)C2 (configuration not stated) | inconclusive: 3.26 µM [falling, single point] | – |
| CCN1CCc2c(OCc3ccc(C)cc3)cccc2C1=O | inconclusive: 13 µM [falling, partial curve] | – |
| Cc1ccccc1C(=O)Nc1sc2c(c1C(=O)N1CCC(C)CC1)CCCC2 | – | inactive: 3.62% |
| Cc1ccc(CSCC(=O)N/N=C/c2ccc(OCC(=O)Nc3ccc(C)cc3)cc2)cc1 | inconclusive: 29.1 µM [falling, single point] | – |
| CC(C)CNc1nc(Oc2ccc(=O)[nH]n2)nc(N(C)C)n1 | inconclusive: 13 µM [falling, partial curve, poor fit] | – |
| Cc1ccc(CNC(=O)CSc2nc3ccsc3c(=O)n2NC(=O)c2ccccc2)cc1 | – | inactive: 26.1% |
| O=C(/C=C1\NCC2c3ccccc3CCN2C1=O)c1ccccc1 (configuration not stated) | inconclusive: 0.58 µM [activator, full curve, poor fit] | – |
| Fc1ccc(-c2nnc(CN3CCC(c4nc5ccccc5s4)CC3)o2)cc1 | inconclusive: 29.1 µM [falling, single point] | – |
| COc1ccc(C2=Nc3cc(C)ccc3OC2)cc1 | inconclusive: 4.11 µM [activator, partial curve] | – |
| CC(=O)NNC(=O)CN1C(=O)/C(=C/c2ccccc2)SC1=S | inconclusive: 25.9 µM [falling, partial curve, poor fit] | – |

| Structure (SMILES) | Potency | activity change, negative = inhibition |
| --- | --- | --- |
| Cc1ccc(-c2csc(NC(=O)C[n+]3cc(-c4ccccc4)n4c3CCC4)n2)cc1 | inconclusive: 20.6 µM [activator, partial curve] | – |
| CCN(CCCNC(=O)c1cc2c(=O)[nH]c3ccc(C)cc3c2s1)Cc1ccccc1 | – | inactive: 15.3% |
| CCc1ccc2oc(C(=O)Nc3nc(-c4ccccc4)ns3)c(C)c2c1 | – | inactive: -2.54% |
| CCN(CC)S(=O)(=O)c1cnccc1N1CCN(c2cccc(Cl)c2)CC1 | inconclusive: 29.1 µM [falling, single point] | – |
| Cc1cccc(N2N=C(C(=O)Nc3ccc(Cl)c(S(=O)(=O)N4CCOCC4)c3)CCC2=O)c1 | inconclusive: 5.17 µM [falling, partial curve, poor fit] | – |
| O=C(Nc1nc(-c2nc3ccccc3s2)cs1)C1COc2ccccc2O1 (configuration not stated) | inconclusive: 20.6 µM [activator, partial curve] | – |
| Cc1cc(C)cc(C(=O)Nc2nnc(SCC(=O)N3CCCc4ccccc43)s2)c1 | inconclusive: 23.1 µM [falling, single point] | – |
| O=C(COc1ccccc1Cl)Nc1cccnc1 | inconclusive: 20.6 µM [activator, partial curve] | – |
| COc1cc(C=O)c(Br)cc1OCc1ccc(C)cc1 | inconclusive: 13 µM [activator, partial curve] | – |
| CNc1c(NS(=O)(=O)c2cc(NC(C)=O)ccc2C)c(=O)oc2ccccc12 | inconclusive: 6.51 µM [activator, single point] | – |
| O=C(CN1CCN(C(=O)c2ccco2)CC1)Nc1ccccc1 | – | inactive: -14.1% |
| CCN1CCN(c2cc(N3CCN(C(=O)c4ccco4)CC3)c3c4c(onc24)-c2ccccc2C3=O)CC1 | – | inactive: -10.2% |
| Cc1cccc(OCC(=O)Nc2ccncc2)c1C | active: 7.31 µM | – |
| CCCN(C(=O)c1nn(-c2ccc(C)cc2)c(=O)c2c1c1ccccc1n2C)c1ccccc1C | inconclusive: 10.3 µM [activator, partial curve, poor fit] | – |
| COc1ccc(/C=N\NC(=O)C2CCCC2)cc1Br | inconclusive: 9.2 µM [activator, partial curve] | – |
| O=C(Nc1ccc(Oc2ccccc2)cc1)C1CCN(S(=O)(=O)c2ccccc2)CC1 | active: 20.6 µM | – |
| CCOC(=O)c1[nH]c(C)c(C(=O)NCc2ccco2)c1C | inconclusive: 20.6 µM [falling, single point] | – |
| COc1ccccc1N(Cc1cc(=O)[nH]c2ccccc12)C(=O)c1ccccc1 | inconclusive: 4.11 µM [falling, full curve, poor fit] | – |
| COc1cccc(OCCn2cc(C(=O)c3ccco3)c3ccccc32)c1 | inconclusive: 32.6 µM [falling, single point] | – |
| COC(=O)Cc1ccc(NC(=S)N2CCN(c3ccc(F)cc3)CC2)cc1 | inconclusive: 10.3 µM [falling, partial curve, poor fit] | – |
| Cc1cc2nc(C)n(CCCNC(=O)Nc3ccc(F)cc3)c2cc1C | inconclusive: 3.26 µM [activator, single point] | – |

Ordered by heavy-atom count (falling): 10 of the compounds above.

| Structure (SMILES) | Potency | activity change, negative = inhibition |
| --- | --- | --- |
| CCN1CCN(c2cc(N3CCN(C(=O)c4ccco4)CC3)c3c4c(onc24)-c2ccccc2C3=O)CC1 | – | inactive: -10.2% |
| Cc1cccc(N2N=C(C(=O)Nc3ccc(Cl)c(S(=O)(=O)N4CCOCC4)c3)CCC2=O)c1 | inconclusive: 5.17 µM [falling, partial curve, poor fit] | – |
| Cc1ccc(CNC(=O)CSc2nc3ccsc3c(=O)n2NC(=O)c2ccccc2)cc1 | – | inactive: 26.1% |
| Cc1cc(C)cc(C(=O)Nc2nnc(SCC(=O)N3CCCc4ccccc43)s2)c1 | inconclusive: 23.1 µM [falling, single point] | – |
| COC(=O)Cc1ccc(NC(=S)N2CCN(c3ccc(F)cc3)CC2)cc1 | inconclusive: 10.3 µM [falling, partial curve, poor fit] | – |
| CCc1ccc2oc(C(=O)Nc3nc(-c4ccccc4)ns3)c(C)c2c1 | – | inactive: -2.54% |
| O=S(=O)(O)c1cc(O)c(N=Nc2ccc(O)cc2O)c2ccccc12 | inconclusive: 18.4 µM [falling, single point] | – |
| O=C(/C=C1\NCC2c3ccccc3CCN2C1=O)c1ccccc1 (configuration not stated) | inconclusive: 0.58 µM [activator, full curve, poor fit] | – |
| CCN1CCc2c(OCc3ccc(C)cc3)cccc2C1=O | inconclusive: 13 µM [falling, partial curve] | – |
| O=C(COc1ccccc1Cl)Nc1cccnc1 | inconclusive: 20.6 µM [activator, partial curve] | – |
